Data reported in PubChem BioAssay AID256 (DTP/NCI, 2004).
The list does not hold the whole screen: it gathers tests that were run many times, whatever their T/C, doses with no T/C, and many T/C values between a quarter and a half above the control. Further doses and runs are listed elsewhere. T/C: endpoint of the treated group in % of that of the vehicle group. Some entries give survivors of the animals treated and no T/C: the source files T/C as zero there, which appears to mark a toxic dose or a test without result, not a measured value. Some doses without a T/C left all or most animals alive at the check, yet need not have been tolerated: the source hardly ever lists a survival T/C far under the control, and the zero likely stands for such cases as well. Survivors were counted at the toxicity check, usually on the fifth day, unless a day is given; later deaths do not show. Schedule codes are those of the source, taken here to give the interval after Q, in days (D) or hours (H), and the number of doses after X. Some entries were tested several times; the results are listed from low to high. Where survival is the endpoint, this PubChem deposit counts one and a half times the control or more as active, and values a quarter to a half above the control carry no call in these data; other NCI protocols may use other cut-offs. Some T/C values are followed by the survivors on the day toxicity was checked, most often the fifth; without a count, all were alive then.

Test system: CD2F1 mice, L1210 leukemia ip, survival T/C
Experiment: NCI In Vivo Anticancer Drug Screen. Data for tumor model L1210 Leukemia (intraperitoneal) in CD2F1 (CDF1) mice
Conditions: higher T/C = longer survival
In short: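 Read-out first: treated-group measurement over vehicle-control measurement, expressed as a ratio. Animals bore a transplanted tumor line and were dosed with compound or vehicle.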

[1] = T/C endpoint: mean survival time, dose: 400.0 mg/kg/injection, schedule: Q01DX001 (ip), vehicle: saline with Tween-80
[2] = T/C endpoint: mean survival time, dose: 100.0 mg/kg/injection, schedule: Q01DX009 (ip), vehicle: saline with Tween-80
[3] = T/C endpoint: mean survival time, dose: 200.0 mg/kg/injection, schedule: Q01DX009 (ip), vehicle: saline with Tween-80
[4] = T/C endpoint: mean survival time, dose: 200.0 mg/kg/injection, schedule: Q04DX003 (ip), vehicle: saline with Tween-80
[5] = T/C endpoint: mean survival time, dose: 400.0 mg/kg/injection, schedule: Q04DX003 (ip), vehicle: saline with Tween-80
[6] = T/C endpoint: mean survival time, dose: 400.0 mg/kg/injection, schedule: Q01DX009 (ip), vehicle: water
[7] = T/C endpoint: mean survival time, dose: 150.0 mg/kg/injection, schedule: Q01DX001 (ip), vehicle: saline
[8] = T/C endpoint: mean survival time, dose: 300.0 mg/kg/injection, schedule: Q01DX001 (ip), vehicle: saline
[9] = T/C endpoint: median survival time, dose: 200.0 mg/kg/injection, schedule: Q01DX009 (ip), vehicle: acid diluted with saline
[10] = T/C endpoint: mean survival time, dose: 100.0 mg/kg/injection, schedule: Q01DX001 (ip), vehicle: saline with Tween-80

For `COc1cccc2c1C(=O)c1c(O)c3c(c(O)c1C2=O)C[C@@](O)(/C(CO)=N/NC(=O)c1ccc(Cl)c(Cl)c1)C[C@@H]3OC1CC(N)C(O)C(C)O1` (stereo not given in full), the T/C (T/C endpoint: mean survival time, dose: 4.0 mg/kg/injection, schedule: Q01DX009 (ip), vehicle: water) was 132 % of control, the T/C (T/C endpoint: mean survival time, dose: 8.0 mg/kg/injection, schedule: Q01DX009 (ip), vehicle: water) was 138 % of control and the survivor count (T/C endpoint: mean survival time, dose: 64.0 mg/kg/injection, schedule: Q01DX009 (ip), vehicle: water) was 2 of 6.

With `Nc1ccc2oc(=O)c(C(=O)O)cc2c1` the survivor count [1] was 1 of 3.

`C1=CC2C3=CC1C=CC32` (stereo not given) was tested, and the survivor count (T/C endpoint: mean survival time, dose: 400.0 mg/kg/injection, schedule: Q01DX009 (ip), vehicle: acetone) was 4 of 6.

For `O=C(CCCN1CCN2Cc3[nH]c4ccccc4c3CC2C1)c1ccc(F)cc1` (stereo not given), the survivor count (T/C endpoint: mean survival time, dose: 25.0 mg/kg/injection, schedule: Q01DX009 (ip), vehicle: saline with Tween-80) was 4 of 6, the survivor count (T/C endpoint: mean survival time, dose: 50.0 mg/kg/injection, schedule: Q01DX009 (ip), vehicle: saline with Tween-80) was 2 of 6 and the survivor count [2] was 0 of 6.

`O=C1CCC/C1=C/c1ccco1` was tested, and the survivor count [3] was 3 of 3 and the survivor count (T/C endpoint: mean survival time, dose: 400.0 mg/kg/injection, schedule: Q01DX009 (ip), vehicle: saline with Tween-80) was 3 of 3.

With `C=CCOCC(O)CN(CCCC)CCCC` (stereo not given) the survivor count [4] was 0 of 6 and the survivor count [5] was 0 of 6.

In the case of `c1ccc(CN(c2ccccc2)C2CCCCC2)cc1`, the survivor count (T/C endpoint: mean survival time, dose: 400.0 mg/kg/injection, schedule: Q04DX003 (ip), vehicle: Klucel (hydroxypropylcellulose) (HPC)) is reported as 3 of 3.

In the case of `CS(=O)(=O)OCCCCOS(C)(=O)=O`, the survivor count (T/C endpoint: mean survival time, dose: 60.0 mg/kg/injection, schedule: Q01DX009 (oral), vehicle: saline with Tween-80) is reported as 5 of 10, the survivor count (T/C endpoint: mean survival time, dose: 120.0 mg/kg/injection, schedule: Q01DX001 (oral), vehicle: saline with Tween-80) is reported as 5 of 10 and the survivor count (T/C endpoint: mean survival time, dose: 120.0 mg/kg/injection, schedule: Q01DX009 (oral), vehicle: saline with Tween-80) is reported as 0 of 10. For the same compound, the survivor count (T/C endpoint: mean survival time, dose: 120.0 mg/kg/injection, schedule: Q04DX003 (ip), vehicle: saline with Tween-80) was 10 of 10, the survivor count (T/C endpoint: mean survival time, dose: 240.0 mg/kg/injection, schedule: Q01DX001 (ip), vehicle: saline with Tween-80) was 6 of 10 and the survivor count (T/C endpoint: mean survival time, dose: 240.0 mg/kg/injection, schedule: Q01DX001 (oral), vehicle: saline with Tween-80) was 1 of 10. For the same compound, the survivor count (T/C endpoint: mean survival time, dose: 240.0 mg/kg/injection, schedule: Q04DX003 (ip), vehicle: saline with Tween-80) was 7 of 10 and the survivor count (T/C endpoint: mean survival time, dose: 480.0 mg/kg/injection, schedule: Q01DX001 (oral), vehicle: saline with Tween-80) was 0 of 10.

With `CCCCN=[N+]=[N-]` the survivor count (T/C endpoint: mean survival time, dose: 50.0 mg/kg/injection, schedule: Q01DX009 (ip), vehicle: water) was 6 of 6 and the survivor count [6] was 6 of 6.

For `CC[N+](C)(CC)Cc1ccc([NH-])c([NH-])c1.[Cl][Pt+2][Cl]`, the survivor count (T/C endpoint: mean survival time, dose: 25.0 mg/kg/injection, schedule: Q04DX003 (ip), vehicle: water) was 0 of 6, the survivor count (T/C endpoint: mean survival time, dose: 50.0 mg/kg/injection, schedule: Q04DX003 (ip), vehicle: water) was 0 of 6 and the survivor count (T/C endpoint: mean survival time, dose: 100.0 mg/kg/injection, schedule: Q04DX003 (ip), vehicle: water) was 0 of 6. The survivor count (T/C endpoint: mean survival time, dose: 200.0 mg/kg/injection, schedule: Q04DX003 (ip), vehicle: water) was 0 of 6.

For `C(=C\CN(Cc1ccccc1)Cc1ccccc1)/CN(Cc1ccccc1)Cc1ccccc1`, the survivor count (T/C endpoint: mean survival time, dose: 400.0 mg/kg/injection, schedule: Q01DX009 (ip), vehicle: Klucel (hydroxypropylcellulose) (HPC)) was 5 of 6.

In the case of `Nc1ccc(CCCCc2ccc(Cl)cc2Cl)cc1`, the survivor count [5] is reported as 1 of 6.

With `COc1cc(/C=C2\C(=O)NC(=O)N(c3ccccc3)C2=O)cc(OC)c1OC` the survivor count [5] was 0 of 6.

`CC1c2ccccc2CC(CCN(C)C)c2ccccc21` (stereo not given) was tested, and the survivor count (T/C endpoint: median survival time, dose: 100.0 mg/kg/injection, schedule: Q01DX009 (ip), vehicle: saline with Tween-80) was 0 of 6.

In the case of `N#Cc1cccc(CN2CCCNCC2)c1`, the survivor count (T/C endpoint: mean survival time, dose: 200.0 mg/kg/injection, schedule: Q01DX009 (ip), vehicle: water) is reported as 3 of 6.

With `Nc1ccc2c(c1)[nH]c1ccccc12` the survivor count [5] was 4 of 6.

With `CN(C)CCP(c1ccccc1)c1ccccc1` the survivor count (T/C endpoint: mean survival time, dose: 150.0 mg/kg/injection, schedule: Q01DX001 (ip), vehicle: other) was 0 of 6 and the survivor count (T/C endpoint: mean survival time, dose: 300.0 mg/kg/injection, schedule: Q01DX001 (ip), vehicle: other) was 0 of 6.

For `CN(C)N=Nc1ccc(SC#N)cc1C(N)=O`, the survivor count (T/C endpoint: mean survival time, dose: 300.0 mg/kg/injection, schedule: Q01DX009 (ip), vehicle: Klucel (hydroxypropylcellulose) (HPC)) was 2 of 6 and 3 of 6.

For `COc1ccc(COc2ccc([N+](=O)[O-])cc2)cc1OC`, the survivor count (T/C endpoint: mean survival time, dose: 300.0 mg/kg/injection, schedule: Q04DX002 (ip), vehicle: saline with Tween-80) was 3 of 3.

`Cc1ccn2c(=O)c(CCBr)c(C)nc2c1` was tested, and the survivor count [7] was 0 of 6 and the survivor count [8] was 0 of 6.

With `O=C1CCN(Cl)C(=O)N1Cl` the survivor count (T/C endpoint: mean survival time, dose: 75.0 mg/kg/injection, schedule: Q01DX001 (ip), vehicle: saline) was 0 of 6, the survivor count [7] was 0 of 6 and the survivor count [8] was 0 of 6.

`O=C(CCl)N1c2ccccc2Sc2ccccc21` was tested, and the survivor count [6] was 5 of 6.

In the case of `CCOC(=O)c1c[nH]c2oc(/C=N/N3CC(CN4CCOCC4)OC3=O)cc2c1=O` (stereo not given), the T/C (T/C endpoint: mean survival time, dose: 100.0 mg/kg/injection, schedule: Q01DX009 (ip), vehicle: other) is reported as 136 % of control, the T/C (T/C endpoint: mean survival time, dose: 100.0 mg/kg/injection, schedule: Q01DX009 (ip), vehicle: saline) is reported as 125 and 126 % of control [5 of 6 alive] and the T/C [3] is reported as 148 % of control. The T/C (T/C endpoint: mean survival time, dose: 200.0 mg/kg/injection, schedule: Q01DX009 (ip), vehicle: saline) was 143 % of control, the T/C (T/C endpoint: median survival time, dose: 100.0 mg/kg/injection, schedule: Q01DX009 (ip), vehicle: acid diluted with saline) was 125 % of control and the T/C (T/C endpoint: median survival time, dose: 200.0 mg/kg/injection, schedule: Q01DX005 (ip), vehicle: other) was 137 % of control. For the same compound, the T/C [9] was 144 % of control, the survivor count [9] was 3 of 5 and the survivor count (T/C endpoint: median survival time, dose: 400.0 mg/kg/injection, schedule: Q01DX009 (ip), vehicle: acid diluted with saline) was 5 of 6. For the same compound, the survivor count (T/C endpoint: median survival time, dose: 800.0 mg/kg/injection, schedule: Q01DX005 (ip), vehicle: other) was 5 of 6.

In the case of `Cc1c(Cl)ccc(OCC2=NCCN2)c1C`, the survivor count (T/C endpoint: mean survival time, dose: 200.0 mg/kg/injection, schedule: Q04DX002 (ip), vehicle: saline with Tween-80) is reported as 1 of 3 and the survivor count (T/C endpoint: mean survival time, dose: 400.0 mg/kg/injection, schedule: Q04DX002 (ip), vehicle: saline with Tween-80) is reported as 0 of 3.

In the case of `Cc1ccc(N=C(C(=Nc2ccc(C)cc2)c2ccccc2)c2ccccc2)cc1`, the survivor count [2] is reported as 6 of 6.

For `Cc1ccc(S(=O)(=O)Nc2ccccc2)c(CC(O)(c2ccccc2)c2ccccc2)c1`, the survivor count [5] was 6 of 6.

`CC(=O)C1C(=O)OC2(C)C(=O)C3=COC(/C=C\C(C)=C/C(C)C)=CC3=CC12` (stereo not given) was tested, and the survivor count (T/C endpoint: mean survival time, dose: 100.0 mg/kg/injection, schedule: Q04DX003 (ip), vehicle: saline with Tween-80) was 6 of 6.

For `C[N+](C)(CC(=O)Nc1ccc(Cl)c(Cl)c1)Cc1ccc(Cl)c(Cl)c1`, the survivor count [10] was 0 of 6, the survivor count (T/C endpoint: mean survival time, dose: 200.0 mg/kg/injection, schedule: Q01DX001 (ip), vehicle: saline with Tween-80) was 0 of 6 and the survivor count [1] was 0 of 6.

For `CCOC(=O)C12CCCCC1C/C(=N/NC(N)=O)CC2` (stereo not given), the survivor count [10] was 6 of 6, the survivor count [4] was 2 of 6 and the survivor count [1] was 0 of 6.

`COc1ccc(CN(CCO)Cc2ccccc2)cc1OC` was tested, and the survivor count [5] was 0 of 6.
